No constants are given. Whether binding was seen depends on the method and setting. Some entries that bind do so weakly or less than the wild type.
Target: mammalian expressed human recombinant secreted PHEX (secPHEX) (human) (UniProt P78562)
Assay: SPR, secPHEX immobilized at 3500 RU, secPHEX analyte

Chains of the proteins cited; added tags and fusions are not shown. Residues count along the entry.
UniProt P78562, residues 46-749: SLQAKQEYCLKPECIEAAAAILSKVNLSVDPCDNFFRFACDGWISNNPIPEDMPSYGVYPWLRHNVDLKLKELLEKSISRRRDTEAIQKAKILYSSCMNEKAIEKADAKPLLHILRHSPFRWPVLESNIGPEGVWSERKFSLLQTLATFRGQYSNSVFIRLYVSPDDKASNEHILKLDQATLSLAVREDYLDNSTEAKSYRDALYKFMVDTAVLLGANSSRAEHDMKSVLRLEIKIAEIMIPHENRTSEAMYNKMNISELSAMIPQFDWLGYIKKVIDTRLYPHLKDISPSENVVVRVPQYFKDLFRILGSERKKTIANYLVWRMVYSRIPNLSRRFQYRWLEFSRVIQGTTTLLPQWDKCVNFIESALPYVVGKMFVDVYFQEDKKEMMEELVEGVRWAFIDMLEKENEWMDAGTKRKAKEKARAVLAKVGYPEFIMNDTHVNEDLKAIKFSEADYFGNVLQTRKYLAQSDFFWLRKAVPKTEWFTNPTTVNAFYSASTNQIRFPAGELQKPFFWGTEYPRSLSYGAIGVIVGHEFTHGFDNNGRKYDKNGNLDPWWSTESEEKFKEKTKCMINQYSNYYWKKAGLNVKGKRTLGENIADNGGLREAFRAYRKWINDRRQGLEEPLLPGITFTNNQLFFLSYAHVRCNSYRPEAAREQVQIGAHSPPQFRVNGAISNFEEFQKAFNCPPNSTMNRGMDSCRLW

## mammalian expressed human recombinant secreted PHEX (secPHEX) (from UniProt P78562 46-749) (enzyme)
  binding: binds

Reference: patent publication US20070099822A1, “Regulation of tissue mineralization and phosphate metabolism by asarm peptides” (priority 2003, published 2007)
